# Assay results taken from paper doi:10.1101/822973.
# Sequences of proteins named here, by UniProt entry; tags and fusion partners are left off.
# UniProt P22561: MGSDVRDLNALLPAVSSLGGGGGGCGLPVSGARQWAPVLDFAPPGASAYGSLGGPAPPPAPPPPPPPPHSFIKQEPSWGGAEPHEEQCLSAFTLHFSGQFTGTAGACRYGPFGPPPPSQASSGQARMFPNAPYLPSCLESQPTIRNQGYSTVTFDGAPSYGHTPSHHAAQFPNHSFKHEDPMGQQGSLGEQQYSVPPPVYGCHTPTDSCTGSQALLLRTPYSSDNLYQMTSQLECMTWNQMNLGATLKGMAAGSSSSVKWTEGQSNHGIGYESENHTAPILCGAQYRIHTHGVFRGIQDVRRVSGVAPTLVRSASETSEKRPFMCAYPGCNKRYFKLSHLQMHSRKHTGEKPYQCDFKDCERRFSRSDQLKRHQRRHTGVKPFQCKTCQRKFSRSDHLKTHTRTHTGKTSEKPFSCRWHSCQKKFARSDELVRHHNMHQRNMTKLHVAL
# UniProt Q8NDV7: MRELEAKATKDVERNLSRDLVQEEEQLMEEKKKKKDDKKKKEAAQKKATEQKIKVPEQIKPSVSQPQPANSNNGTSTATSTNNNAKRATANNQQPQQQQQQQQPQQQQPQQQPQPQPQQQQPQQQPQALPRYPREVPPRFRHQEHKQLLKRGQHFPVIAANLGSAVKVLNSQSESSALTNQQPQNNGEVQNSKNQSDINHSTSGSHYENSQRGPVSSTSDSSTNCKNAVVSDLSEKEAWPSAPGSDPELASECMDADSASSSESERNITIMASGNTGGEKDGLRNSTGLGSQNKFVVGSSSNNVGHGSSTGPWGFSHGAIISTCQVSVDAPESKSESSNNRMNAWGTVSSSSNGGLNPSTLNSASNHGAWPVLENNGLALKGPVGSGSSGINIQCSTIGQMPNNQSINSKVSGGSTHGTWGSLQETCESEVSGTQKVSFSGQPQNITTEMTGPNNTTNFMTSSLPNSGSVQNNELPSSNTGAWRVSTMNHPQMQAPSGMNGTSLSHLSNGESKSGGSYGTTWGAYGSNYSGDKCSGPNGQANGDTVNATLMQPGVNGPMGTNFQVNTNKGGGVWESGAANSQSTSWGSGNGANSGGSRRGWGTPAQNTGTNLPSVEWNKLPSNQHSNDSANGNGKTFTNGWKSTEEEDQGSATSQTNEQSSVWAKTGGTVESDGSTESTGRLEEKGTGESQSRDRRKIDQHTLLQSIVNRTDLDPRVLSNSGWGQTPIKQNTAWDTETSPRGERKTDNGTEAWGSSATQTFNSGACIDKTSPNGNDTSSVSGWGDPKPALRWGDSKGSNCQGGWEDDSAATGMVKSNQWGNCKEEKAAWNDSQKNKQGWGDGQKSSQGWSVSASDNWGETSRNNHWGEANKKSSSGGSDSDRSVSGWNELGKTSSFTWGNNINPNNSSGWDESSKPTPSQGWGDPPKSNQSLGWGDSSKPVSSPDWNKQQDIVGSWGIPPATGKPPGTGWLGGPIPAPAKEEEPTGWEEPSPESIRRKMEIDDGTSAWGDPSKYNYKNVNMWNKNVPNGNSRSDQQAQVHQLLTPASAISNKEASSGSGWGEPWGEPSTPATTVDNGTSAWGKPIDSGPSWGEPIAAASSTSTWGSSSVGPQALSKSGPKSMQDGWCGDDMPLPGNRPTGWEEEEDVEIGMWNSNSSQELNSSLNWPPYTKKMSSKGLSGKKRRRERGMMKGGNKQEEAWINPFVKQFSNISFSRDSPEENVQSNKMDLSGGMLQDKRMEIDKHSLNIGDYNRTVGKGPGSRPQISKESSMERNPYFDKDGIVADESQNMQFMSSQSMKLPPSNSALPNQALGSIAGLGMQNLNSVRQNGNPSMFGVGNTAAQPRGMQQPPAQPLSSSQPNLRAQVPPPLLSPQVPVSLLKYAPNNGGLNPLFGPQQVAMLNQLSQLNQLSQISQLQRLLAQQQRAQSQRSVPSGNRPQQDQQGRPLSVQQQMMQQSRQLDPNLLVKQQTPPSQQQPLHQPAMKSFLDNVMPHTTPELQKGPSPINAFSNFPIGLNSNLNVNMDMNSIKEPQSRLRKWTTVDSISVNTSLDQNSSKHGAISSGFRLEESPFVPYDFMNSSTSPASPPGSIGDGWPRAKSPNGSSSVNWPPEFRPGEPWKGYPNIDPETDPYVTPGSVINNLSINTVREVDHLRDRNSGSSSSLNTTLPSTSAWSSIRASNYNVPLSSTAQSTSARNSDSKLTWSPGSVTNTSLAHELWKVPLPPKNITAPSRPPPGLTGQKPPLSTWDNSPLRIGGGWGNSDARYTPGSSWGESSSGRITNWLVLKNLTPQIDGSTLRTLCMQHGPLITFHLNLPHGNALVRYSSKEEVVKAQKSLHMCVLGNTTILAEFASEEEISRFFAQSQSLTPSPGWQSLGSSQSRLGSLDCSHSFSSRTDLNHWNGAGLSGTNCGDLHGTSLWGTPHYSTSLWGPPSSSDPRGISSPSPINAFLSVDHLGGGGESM
# UniProt Q8CJG0: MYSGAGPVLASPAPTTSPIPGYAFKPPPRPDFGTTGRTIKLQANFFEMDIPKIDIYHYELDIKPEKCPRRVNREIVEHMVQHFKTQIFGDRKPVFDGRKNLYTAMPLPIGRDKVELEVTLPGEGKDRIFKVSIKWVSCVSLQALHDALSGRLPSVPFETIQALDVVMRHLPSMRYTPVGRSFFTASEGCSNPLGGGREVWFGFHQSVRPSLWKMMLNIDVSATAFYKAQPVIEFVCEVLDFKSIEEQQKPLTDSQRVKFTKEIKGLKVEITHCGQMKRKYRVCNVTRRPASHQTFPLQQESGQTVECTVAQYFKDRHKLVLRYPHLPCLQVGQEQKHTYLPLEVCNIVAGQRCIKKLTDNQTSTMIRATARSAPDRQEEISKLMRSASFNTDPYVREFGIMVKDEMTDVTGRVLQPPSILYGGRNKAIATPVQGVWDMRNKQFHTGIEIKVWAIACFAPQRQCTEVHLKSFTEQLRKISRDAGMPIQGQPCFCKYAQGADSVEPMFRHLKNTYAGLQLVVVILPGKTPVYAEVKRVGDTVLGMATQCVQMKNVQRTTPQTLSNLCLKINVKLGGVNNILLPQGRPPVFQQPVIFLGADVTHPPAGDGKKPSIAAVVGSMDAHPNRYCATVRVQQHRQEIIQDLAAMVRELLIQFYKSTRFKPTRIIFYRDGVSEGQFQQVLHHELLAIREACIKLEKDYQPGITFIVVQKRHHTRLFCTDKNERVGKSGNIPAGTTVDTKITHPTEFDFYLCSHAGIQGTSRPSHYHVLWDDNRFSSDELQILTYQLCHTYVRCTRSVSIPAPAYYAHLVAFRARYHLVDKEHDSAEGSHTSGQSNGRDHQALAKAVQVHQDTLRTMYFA
# Results are given in words; binding and its absence hold for the method and conditions named. In cells and extracts the contact can be indirect. Some entries that bind do so weakly or less than the wild type.
# How the values were obtained:
# [1] = biological target: Wilms' tumour 1 (WT1) protein (mouse (endogenous in M15)) (UniProt P22561); test: co-IP
# GFP tagged GW182 = GFP tagged GW182 (UniProt Q8NDV7); test: co-IP
Substance,binding [1],binding (GFP tagged GW182)
Argonaute 1 (AGO1) (from UniProt Q8CJG1 1-857),binds,–
Argonaute 2 (AGO2) (from UniProt Q8CJG0 1-860),binds,–
Wilms' tumour 1 (WT1) protein in the cells transfected with GFP-GW182 (from UniProt P22561 1-449),–,binds
